Values from PubChem BioAssay AID1159578 (Peter MacCallum Cancer Centre, 2015).
Here is a random part of about 18,000 deposited reagents. About 1,030 of them (5.7%) were called active. 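Inactive calls also include pools with fewer than 3300 nuclei, whose migration was not assessed.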 The raw values are shown without normalisation. A number with no mark means an inactive call. Further read-outs or replicates are left out here.

Screen: 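siRNA pools altering how lymphatic endothelial cells close a scratch wound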 (primary screen)
Cells: human lymphatic endothelial cells
Reagent: siRNA pool against human genes, 40 nM
Timing: 48 h after transfection
Measurement: 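Cells stained with dye and imaged after a scratch; covered wound area and nuclei counted, duplicates averaged, migration set against mock wells and turned into a robust z-score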
Scale: migration robust z-score: higher = faster migration into the scratch; nuclei per well: higher = more cells in the well
Rule for the call: 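Pools averaging fewer than 3300 nuclei are never called; remaining pools count as changed when migration robust z lies outside -2 to 2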
Meaning of the calls: active = migration changed; inactive = no migration change, or too few cells

Which result is listed for KRT26?
migration robust z-score: 1.42; migration class with cell-count check: migration z between -2 and 2; enough cells; nuclei per well, duplicate mean: 3752

For PTCD2, how do the results read?
migration robust z-score: -1.84; migration class with cell-count check: migration z between -2 and 2; enough cells; nuclei per well, duplicate mean: 5803

How did the screen score PLXNA1?
migration robust z-score: 0.78; migration class with cell-count check: migration z between -2 and 2; enough cells; nuclei per well, duplicate mean: 4068

For CCNO, what does the deposit list?
migration robust z-score: 0.08; migration class with cell-count check: migration z between -2 and 2; enough cells; nuclei per well, duplicate mean: 5938

What did the screen give for KCNA3?
migration robust z-score: 0.34; migration class with cell-count check: migration z between -2 and 2; enough cells; nuclei per well, duplicate mean: 7181

Which result is listed for SCAP?
migration robust z-score: -1.01; migration class with cell-count check: migration z between -2 and 2; enough cells; nuclei per well, duplicate mean: 5878

What did the screen give for MMP9?
migration robust z-score: 1.14; migration class with cell-count check: migration z between -2 and 2; enough cells; nuclei per well, duplicate mean: 5242

With ALG10, how do the results read?
migration robust z-score: 0.31; migration class with cell-count check: migration z between -2 and 2; enough cells; nuclei per well, duplicate mean: 7025

For TM4SF4, what does the deposit list?
migration robust z-score: -0.34; migration class with cell-count check: under 3300 nuclei; migration not judged; nuclei per well, duplicate mean: 3152

2 entries from above, set out differently.
MMP9
- migration robust z-score: 1.14
- migration class with cell-count check: migration z between -2 and 2; enough cells
- nuclei per well, duplicate mean: 5242

ALG10
- migration robust z-score: 0.31
- migration class with cell-count check: migration z between -2 and 2; enough cells
- nuclei per well, duplicate mean: 7025

The listing continues:
What did the screen give for MYO1D?
migration robust z-score: 0.34; migration class with cell-count check: migration z between -2 and 2; enough cells; nuclei per well, duplicate mean: 6891

With ZNF550, how do the results read?
migration robust z-score: -0.86; migration class with cell-count check: migration z between -2 and 2; enough cells; nuclei per well, duplicate mean: 5181

For ARL15, what was measured?
migration robust z-score: 0.74; migration class with cell-count check: migration z between -2 and 2; enough cells; nuclei per well, duplicate mean: 5412

How did the screen score TAGAP?
migration robust z-score: 0.44; migration class with cell-count check: migration z between -2 and 2; enough cells; nuclei per well, duplicate mean: 5610

For STAT4, how do the results read?
migration robust z-score: 0.02; migration class with cell-count check: migration z between -2 and 2; enough cells; nuclei per well, duplicate mean: 5853
